# PubChem BioAssay AID1508600 (Functional Genomics Laboratory (NCATS/FGL), 2020)
# Among all 53,000 sequences or so, about 3,700 (7%) were called active.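 How the source made its calls: active means gene knockdowns whose robust z-score for IL-1 alpha signal is at least 2 or at most -2, so actives lie on both sides; inactive means the rest.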 This is one part of the list.
# Test: Components of the Cytosolic LPS Sensing Pathway: Gene Identification via Genome-wide siRNA Screen;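 further: robust z of the log signal after scaling to non-targeting control siRNA wells of the plate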
# Conditions: RAW264.7 macrophages, IL-1a HTRF, actives lie on both sides, screened at 100 nM (by protocol), cells primed 5 h with Pam3CSK4 first
# How it was run: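 Cells (RAW264.7, 1×10^4 per well) were transfected with siRNA at 100 nM and cultured 48h at 37 degrees C. Pam3CSK4 was added for 5 hours; LipidA transfection followed for 24 hour. IL-1a was then measured by HTRF.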
row,Sequence,z-score
1,GGUGAACAACUUUGUCAUCTT against Atat1,inactive: -0.258
2,GCGACGCAGAGUGAGAAGATT against Cdk4,inactive: -1.03
3,CGGAGGAAUCACAAGUAUATT against Il23r,inactive: -0.245
4,CGAGGUUGAAGAUCUCUAUTT against Dph6,inactive: 1.91
5,GGGAGCCAUUUUUACAGACTT against Ffar4,inactive: 0.405
6,GGUCGACAGACUCUUGCAUTT against Mylk3,inactive: -0.982
7,GGAGAAGCCUCAUCAACCATT against Fam53b,inactive: -1.33
8,GGACAUGGCCAGAUACUACTT against Npy,inactive: 0.389
9,GGAAUCUCACCAAUCCAAATT against Rab14,inactive: -0.364
10,GGACUAAAUGGUCAAGAUUTT against Rbm8a,active: -2.74
11,GGAAGAGAGCGAUUAAAUUTT against Rsrc2,inactive: 0.839
12,GGGCUGAAGAUGACUUCAATT against Topors,active: 5.91
13,GGGAGCUAUUUAUCCUAUUTT against Zc4h2,inactive: 0.214
14,GCCUUAAUUUAUCCGAAAGTT against Senp7,inactive: 0.629
15,GAGCUGGAGCAAGAAUUCGTT against 4632415L05Rik,inactive: -0.0319
16,GGUCAAGUGUAACAAAGAATT against Bcorl1,inactive: -0.417
17,GGCUUUGUUAGUCUAUGACTT against Dzip1l,inactive: -0.552
18,CACAGGAGCCAAUGAUGCUTT against Taar7d,inactive: -0.441
19,GCAUUAAAGUGCUGUUCUUTT against Ccdc130,inactive: 0.814
20,GCUUCAGACCCACGCAUAATT against Taf10,inactive: -0.179
21,CCUCAAAUUUUGGGUCUCATT against Bcat2,inactive: -1.48
22,CGCGCUGCCAGAUACACUATT against H2bc8,inactive: -0.656

row,Sequence,z-score
1,GGCACUGGAUCUUACAGAATT against 1700034I23Rik,inactive: 0.542
2,GGAGAUUUACUCACAGUUCTT against Kcnip4,inactive: 1.26
3,GGUCUGUCUCGUCUACAAUTT against Gstm1,active: 2.98
4,GGCAGAAUGGGAAAUGUAUTT against Htr7,inactive: -0.841
5,GGAAGCCACCUUAACAUUATT against Osgin1,inactive: -0.814
6,CCCUCAGUACCUAAUUAAGTT against Capn2,inactive: -0.697
7,GGAACUCCUAAAGAAGAGGTT against Galntl5,inactive: 0.428
8,CGAAUACGAAGCAGAAAAGTT against Smarce1,inactive: 1.43
9,GGAAGAUGCUUUUGUAAGUTT against Smyd4,inactive: 0.698
10,GCCAAUUUGGAUAUUCAUGTT against Spopl,inactive: -0.386
11,GGAGUGUGUCUAUACUAUUTT against Otor,inactive: 1.56
12,GGCUCAAAAUGUUCAAGCCTT against Trim12a,inactive: 1.35
13,GGCAAGAAAUUCAAAAGCUTT against Supv3l1,inactive: -0.524
14,GCAUUUUGCCCAAUCAAGATT against Pcare,inactive: 0.696
15,GGACUCUUUUUUUACCUUGTT against Trir,inactive: -1.61
16,CAAGCAGUAAGGAUAUCCATT against Nlrp4e,inactive: -1.82
17,CAUUGUCAUUCUGCUGGCATT against Olfr1249,inactive: -0.0752
18,GCUGCACAAGUGCAUUUUUTT against Srp14,inactive: -1.34
19,GUGUGAAGUGCAGACUGAGTT against Trrap,inactive: -1.27
20,AACAUUGCUUACCUUAGUGTT against Mrgprb1,inactive: -1.11
21,GGAGGUUUUCUGGUAGCUGTT against Rnf138,inactive: -0.372
22,GGGUUCUGCAUGUUGAUUCTT against Chm,inactive: -0.853

# Some of the entries so far, with bars between the fields:
row | Sequence | z-score
2 | GGAGAUUUACUCACAGUUCTT against Kcnip4 | inactive: 1.26
9 | GGAAGAUGCUUUUGUAAGUTT against Smyd4 | inactive: 0.698
11 | GGAGUGUGUCUAUACUAUUTT against Otor | inactive: 1.56
16 | CAAGCAGUAAGGAUAUCCATT against Nlrp4e | inactive: -1.82

# Continued.

row,Sequence,z-score
1,GCAAAUUGAGCUCCUACUCTT against Traip,inactive: 0.178
2,GCUAUGAAUCAGAAUGAAGTT against Bend6,inactive: 0.134
3,CCCUAUAUGAAUAACUCAUTT against Zfp300,inactive: -0.498
4,GCAUAUCCUCCAAAAGAAATT against 2010106E10Rik,inactive: -1.2
5,GCAUCAGAGGGAUUUCACUTT against Slc35d3,active: -2.68
6,GAUGCAGUGCAAAGUAUACTT against Cldn9,inactive: 1.7
7,GCCUUAUCCCUCAUGUUACTT against Pde1c,inactive: 1.11
8,CGUCUGUCUGUAUGAAAUUTT against Ttc39c,inactive: -0.0872
9,CCUUAAGGCUGAUUGGGACTT against Nudt16l2,inactive: 0.528
10,GGUCCAGAGAAUGUUAUUATT against Spinkl,inactive: 0.263
11,CCGAUGACGAACAGUUUGATT against Eif4ebp3,active: 2.08
12,GAAUAUACUCUUUGUGGUATT against Olfr1220,inactive: 0.0434
13,GGCAGAACAUUAAUAGAUATT against Polr3h,inactive: -1
14,CGAGCAAUUAAAUUCCUGUTT against Api5,inactive: 0.286
15,GGGCUUACUGCUUAAUAGATT against Fundc2,inactive: 0.481
16,UCGAAGAUUGGUCUAAAUUTT against Tepp,inactive: 0.212
17,GCCUUUUCCUGGUACUCGGTT against Ceacam13,inactive: 1.36
18,GGUGUAUUUUGUGACUAUCTT against Ugt1a9,inactive: 0.0698
19,GGCUUCGCUCUGGUUUACUTT against Rap1b,inactive: 0.323
20,CGGAUGGAGCUAUGAUGUGTT against Ndufs4,inactive: -0.277
21,GGACCAUCAGAGGAGAACUTT against Cuedc2,active: -2.09
22,GGAGAUUAUUAACUUCACCTT against Hcn3,inactive: -0.895

row,Sequence,z-score
1,GGAUUUCCUUUUAAGACUUTT against Rab3il1,inactive: -0.71
2,GGACAUGAAGUGUAUAUAUTT against Il13ra2,inactive: -0.511
3,GGCCACAGAAUUGAAAGAUTT against Il2,inactive: -0.622
4,GCUGAAUACCCUUUUAGUUTT against Atp2c1,inactive: 0.317
5,GGAAGCAACAUGGAUACUATT against Mecom,inactive: 0.707
6,CCUUUGUGACCAAGAUGGUTT against Ttyh3,inactive: -0.0597
7,GGCUAAAGUGAGCUCUUCATT against Nob1,inactive: -0.947
8,GCCUAUUCUUUUCGGGAUATT against Olfr39,inactive: 1.13
9,GGACAGUUAAUGUUUCUGUTT against Clptm1l,inactive: 0.254
10,AAUGAUGCCAUAAAGAGUGTT against Olfr114,inactive: -0.299
11,GGACUAUAUGAGAUAAACUTT against Pask,inactive: 0.371
12,GGAGACAGAGAAGAUUUGUTT against Mia2,inactive: -0.21
13,GGUACAGUUAACUACAAACTT against C130023O10Rik,inactive: 1.79
14,GGAAAAGCAAACCAGAAUCTT against Nr1d1,inactive: 0.66
15,GGUGCUGUGUUUACGUUUGTT against Rpgr,inactive: 0.349
16,GGUCUUUGAGAAGUACCACTT against Chst3,inactive: -0.22
17,CCUGUUAGCUAGAGUAGGATT against Skint7,inactive: 0.76
18,GCGAUUGAGCAGUGAAUAATT against Fam216b,inactive: 1.06
19,CGGUAAUUGCAUUUUAAAGTT against Vps4b,inactive: 0.618
20,CGAAGCAACAAGGAAAUUGTT against Anxa13,inactive: 0.465
21,GGCCAAUUUGUUGAUUCCUTT against Rheb,inactive: -1.32
22,GAUAAUGACCAGGCUACCATT against Magea7-ps,inactive: 0.069

row,Sequence,z-score
1,CCAUAGGUAUCAUUGCAAGTT against Tas2r139,active: -2.16
2,GGCCUGAGAGUAACUCAAATT against Fhit,inactive: -0.21
3,GGAAGAAAAGGUAUUUCUUTT against Sub1,inactive: 0.438
4,CCAUAUAUGAUAGGAAACUTT against Pon2,inactive: -0.288
5,CGGUGCUUCUGAAACUAGATT against Lrrc3,inactive: 1.69
6,GGCAAAUAGUUUCUUCAAUTT against Npnt,inactive: -0.485
7,GGAAUUCUUCAUCCAUGGATT against Olfr570,active: -2.66
8,GGUGAACAUAGAUCACGAGTT against Rgs16,inactive: -0.54
9,GGGAUUCAUACUACUUAACTT against Olfr304,inactive: 1.32
10,GGGUUCGAUACGACUGCCATT against Arhgef7,inactive: -0.798
11,GGCUCAACGGCUUAGGGAATT against B3gat3,inactive: 1.42
12,GCCGAAUCCGAACAAAACCTT against Tat,inactive: 0.263
13,GGAUCACUAACUUUUCCAATT against Trpc3,active: 3.46
14,GCACACCAGAUCUACUUCUTT against Cyp2b9,inactive: 0.3
15,GCUCAUAAGUCUAUUACUGTT against Asb14,inactive: -0.0222
16,GGAACAGCGGCUAACUUAUTT against Asic4,inactive: 1.4
17,GGAGAAGCUAGAGUUCAUGTT against Fosl2,inactive: -0.787
18,GCUGAACUAUCCCUUAGUGTT against Rccd1,inactive: -0.69
19,GGUCAUCGUGUUUGGUUUCTT against Dcaf15,inactive: 0.839

# Some values from the list.
# z-score with GGAUUUCCUUUUAAGACUUTT against Rab3il1 reads inactive: -0.71
# z-score with CCUCAAAUUUUGGGUCUCATT against Bcat2 reads inactive: -1.48
# z-score with GGGCUGAAGAUGACUUCAATT against Topors reads active: 5.91
# z-score with GGUGUAUUUUGUGACUAUCTT against Ugt1a9 reads inactive: 0.0698
